PubChem BioAssay AID1259424 | University of Nebraska Medical Center – 2018
Assay: 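Find knockdowns that reproduce the expression shifts seen after KSR1 loss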 (primary screen). Cells: human HCT116 colon cancer cells. Reagent: siRNA pool against human genes, 50 nM. Detection: 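Log2 levels of six mRNAs (branched-DNA multiplex), adjusted by two reference genes and the non-targeting median, then scored against the average KSR1 knockdown pattern as Pearson r and euclidean distance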. Reading the numbers: mean correlation with KSR1 profile: higher = expression change more like KSR1 knockdown.
Here is one part, drawn at random, of about 14,000 reagents tested. 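Higher correlation or smaller distance means closer resemblance to KSR1 loss; control wells, including KSR1 knockdowns, recur on many plates.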 Not all columns of the deposit are shown. No sequences are given here. The record does not give: the time to read-out.

| gene symbol | mean correlation with KSR1 profile |
| --- | --- |
| CLCF1 | 0.0428 |
| PEBP1 | 0.807 |
| TMSB4Y | -0.229 |
| CCDC88A | 0.637 |
| PLCE1 | -0.603 |
| PLD1 | 0.0373 |
| SHD | 0.253 |
| LDLR | -0.14 |
| NXT2 | 0.691 |
| MON1A | 0.775 |
| OBP2A | -0.459 |
| DHX38 | -0.568 |
| MFSD6 | 0.495 |
| TCF12 | 0.0566 |
| LINC00869 | 0.158 |
| TSNAX | -0.104 |
| DSG3 | -0.273 |
| GBGT1 | -0.487 |
| GFUS | -0.147 |
| GPC3 | -0.275 |
